Experimental data: PubChem BioAssay AID1259268 (Sanger Institute, 2017)
Shown is one part, drawn at random, of 160 reagents tested. In the full data, 58 (36%) got an active call. 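Trametinib by itself roughly halved viability, making its arm harsher than the cetuximab and BYL719 arms.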 A number with no mark means an inactive call. Reagents against one gene are numbered here. Viability is capped at 1. Not all columns of the deposit are shown. Not given: the amount of reagent, the time to read-out.

Screen: 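Kinase genes whose loss makes colon cancer cells more drug sensitive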 (follow-up of hits)
Cell system: human SNUC1 colorectal cancer cells
Knock-down reagent: single siRNA against human genes
Challenge: anchor drugs added a day after transfection: BYL719 1 µM, cetuximab 5 µg/ml or trametinib 10 nM, versus DMSO vehicle
Detection: 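Mean viability per well relative to non-targeting pool 2 siRNA, plus a synergy score weighing the joint knock-down and drug effect against each effect alone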
Scale: synergy score with trametinib and synergy score with cetuximab and synergy score with BYL719: higher = stronger synergy of knock-down with drug; viability without drug (DMSO): higher = more viable cells
Active means: 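Inactive when no drug gives a synergy score over 0.1, otherwise active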
Meaning of the calls: active = synergy with at least one drug; inactive = no synergy with any drug

no.	gene	reagent no.	synergy score with trametinib	synergy score with cetuximab	synergy score with BYL719	viability without drug (DMSO) (fraction of control)
1	PRAG1	1	0.212 (active)	0.271	0.0819	0.506
2	PRAG1	2	0.329 (active)	-0.0653	0.111	0.91
3	PRAG1	3	0.0635	-0.0361	-0.121	0.895
4	PRAG1	4	0.162 (active)	0.0635	0.0299	0.975
5	PIM1	1	0.155 (active)	0.0667	0.0496	0.651
6	PIM1	2	0.042	-0.0663	-0.194	1
7	PIM1	3	0.118 (active)	-0.072	-0.058	0.862
8	PIM1	4	0.0909	0.0156	-0.283	0.905
9	CDKN2D	1	0.339 (active)	-0.0663	-0.108	1
10	CDKN2D	2	0.135 (active)	-0.00579	-0.0382	0.942
11	CDKN2D	3	0.193 (active)	-0.0663	-0.0938	1
12	CDKN2D	4	0.173 (active)	-0.0967	0.0403	0.965
13	BMPR2	1	0.122 (active)	-0.0406	-0.285	0.929
14	BMPR2	2	0.13 (active)	0.0441	-0.0442	1
15	BMPR2	3	0.0552	-0.0663	-0.175	1
16	BMPR2	4	-0.104	-0.0663	-0.23	1
17	MPP3	1	0.0368	-0.0765	-0.198	0.905
18	MPP3	2	0.114 (active)	-0.0663	-0.204	1
19	MPP3	3	0.239 (active)	-0.0729	0.00789	0.619
20	MPP3	4	0.203 (active)	-0.262	-0.193	0.763
21	CAMK2N1	1	-0.0696	-0.011	-0.0819	0.817
22	CAMK2N1	2	-0.0458	-0.0663	-0.108	1
23	CAMK2N1	3	0.0554	0.0601	-0.165	0.996
24	CAMK2N1	4	-0.148	0.0446	-0.196	0.656
25	MAP3K8	1	-0.00401	-0.0135	-0.23	1
26	MAP3K8	2	0.0336	0.0223	0.00383	0.883
27	MAP3K8	3	0.0165 (active)	0.105	-0.232	0.944
28	MAP3K8	4	0.0645	0.0341	-0.103	0.779

In a second layout: entries from further up
PIM1 #1 — synergy score with trametinib: 0.155 (active); synergy score with cetuximab: 0.0667; synergy score with BYL719: 0.0496; viability without drug (DMSO) (fraction of control): 0.651
PIM1 #2 — synergy score with trametinib: 0.042; synergy score with cetuximab: -0.0663; synergy score with BYL719: -0.194; viability without drug (DMSO) (fraction of control): 1
PIM1 #3 — synergy score with trametinib: 0.118 (active); synergy score with cetuximab: -0.072; synergy score with BYL719: -0.058; viability without drug (DMSO) (fraction of control): 0.862
PIM1 #4 — synergy score with trametinib: 0.0909; synergy score with cetuximab: 0.0156; synergy score with BYL719: -0.283; viability without drug (DMSO) (fraction of control): 0.905
CDKN2D #1 — synergy score with trametinib: 0.339 (active); synergy score with cetuximab: -0.0663; synergy score with BYL719: -0.108; viability without drug (DMSO) (fraction of control): 1

Additional results follow:
no.	gene	reagent no.	synergy score with trametinib	synergy score with cetuximab	synergy score with BYL719	viability without drug (DMSO) (fraction of control)
29	GUCY2D	1	0.0656	-0.0272	-0.177	0.977
30	GUCY2D	2	0.112 (active)	-0.11	-0.106	0.928
31	GUCY2D	3	-0.0245	-0.182	-0.159	0.65
32	GUCY2D	4	0.0405	-0.0622	-0.23	1
33	KCNH8	1	0.128 (active)	-0.0214	0.0893	0.865
34	KCNH8	2	0.13 (active)	-0.104	-0.133	0.605
35	KCNH8	3	0.0737 (active)	0.154	-0.0173	0.926
36	KCNH8	4	0.134 (active)	0.0301	-0.119	0.895
37	PFKFB3	1	0.119 (active)	0.00166	-0.142	1
38	PFKFB3	2	0.0546	0.0377	-0.0581	0.968
39	PFKFB3	3	0.0183 (active)	0.115	-0.23	1
40	PFKFB3	4	0.0199	0.0137	-0.252	0.972
41	PINK1	1	-0.0225	-0.226	-0.362	0.829
42	PINK1	2	0.12 (active)	0.017	-0.12	0.71
43	PINK1	3	-0.0468	-0.222	-0.235	0.68
44	PINK1	4	0.142 (active)	-0.0983	-0.188	0.931
45	CSNK2A2	1	0.0628	-0.0775	-0.212	0.988
46	CSNK2A2	2	-0.06	-0.155	-0.086	0.795
47	CSNK2A2	3	-0.094	-0.00798	-0.26	0.931
48	CSNK2A2	4	0.0247	-0.146	-0.295	0.495
49	HUNK	1	0.0931	-0.0267	-0.123	0.899
50	HUNK	2	0.207 (active)	-0.144	0.0231	0.825
51	HUNK	3	0.0415	-0.0623	-0.0703	1
52	HUNK	4	0.135 (active)	0.024	-0.167	1
